First the molecules themselves.
B1: 6E11 Fab (Fab, V domains shown)
VH: EVQLVESGGGLVKPGGSLRLSCAASGFTFSRYSMSWVRQAPGKGLEWVGQINSRGNSTYYPDTVKGRFTISRDDSKNTLYLQMNSLKTEDTAVYYCTTGDFWGQGTLVTVSS
VL: DIVMTQTPLSLSVTPGQPASISCRSSQSLIYSDGSAYLHWYLQKPGQSPQLLIYKVSNRFSGVPDRFSGSGSGTDFTLKISRVEAEDVGVYYCSQSTHSPWTFGGGTKVEIK
B2: 1C5 Fab (Fab, V domains shown)
VH: EVQLVESGGGLVKPGGSLRLSCAASGFTFSRYSMSWVRQAPGKGLEWVGQINSVANSTYYPDTVKGRFTISRDDSKNTLYLQMNSLKTEDTAVYYCTTGDFWGQGTLVTVSS
VL: DIVMTQTPLSLSVTPGQPASISCRSSQSLIYSDGNAYLHWYLQKPGQSPQLLIYKVSNRFSGVPDRFSGSGSGTDFTLKISRVEAEDVGVYYCSQSTHSPWTFGGGTKVEIK
B3: A4 Fab (Fab, V domains shown)
VH: EVQLVESGGGLVKPGGSLRLSCAASGFTFSRYSMSWVRQAPGKGLEWVGQINSPGNSTYYPDTVKGRFTISRDDSKNTLYLQMNSLKTEDTAVYYCTTGDSWGQGTLVTVSS
VL: DIVMTQTPLSLSVTPGQPASISCRSSQSLIYSDGNAYLHWYLQKPGQSPQLLIYKVSNRFSGVPDRFSGSGSGTDFTLKISRVEAEDVGVYYCSQSTHSPWTFGGGTKVEIK
B4: 1E8 Fab (Fab, V domains shown)
VH: EVQLVESGGGLVKPGGSLRLSCAASGFTFSRYSMSWVRQAPGKGLEWVGQINSRGNSTYYPDTVKGRFTISRDDSKNTLYLQMNSLKTEDTAVYYCTTGDFWGQGTLVTVSS
VL: DIVMTQTPLSLSVTPGQPASISCRSSQSLIYSDGNAYLHWYLQKPGQSPQLLIYKVSNRFSGVPDRFSGSGSGTDFTLKISRVEAEDVGVYYCSQSTHSPWSFGGGTKVEIK
B5: 1A1 Fab (Fab, V domains shown)
VH: EVQLVESGGGLVKPGGSLRLSCAASGYTFSRYSMSWVRQAPGKGLEWVGQINIRGNNTYYPDTVKGRFTISRDDSKNTLYLQMNSLKTEDTAVYYCTTGDFWGQGTLVTVSS
VL: DIVMTQTPLSLSVTPGQPASISCSSSQSLIYSDGNAYLHWYLQKPGQSPQLLIYKVSNRFSGVPDRFSGSGSGTDFTLKISRVEAEDVGVYYCTQSTHSPWTFGGGTKVEIK
B6: D3 Fab (Fab, V domains shown)
VH: EVQLVESGGGLVKPGGSLRLSCAASGFTFSRYSMSWVRQAPGKGLEWVGQINSIGNSTYYPDTVKGRFTISRDDSKNTLYLQMNSLKTEDTAVYYCTTGDWWGQGTLVTVSS
VL: DIVMTQTPLSLSVTPGQPASISCRSSQSLIYSDGNAYLHWYLQKPGQSPQLLIYKVSNRFSGVPDRFSGSGSGTDFTLKISRVEAEDVGVYYCSQSTHSPWTFGGGTKVEIK
B7: 5D1 Fab (Fab, V domains shown)
VH: EVQLVESGGGLVKPGGSLRLSCAASGFTFSRYSMSWVRQAPGKGLEWVGQINSRGNSTYYPDTVKGRFTISRDDSKNTLYLQMNSLKTEDTAVYYCTTGDFWGQGTLVTVSS
VL: DIVMTQTPLSLSVTPGQPASISCRSSQSLIYSDGNAYLHWYLQKPGQSPQLLIYKVYNRFSGVPDRFSGSGSGTDFTLKISRVEAEDVGVYYCSQSTHSPWTFGGGTKVEIK
B8: 5A11 Fab (Fab, V domains shown)
VH: EVQLVESGGGLVKPGGSLRLSCAASGFTFSRYSMSWVRQAPGKGLEWVGQINSRGNSTYYPDTVKGRFTISRDDSKNTLYLQMNSLKTEDTAVYYCTTGDFWGQGTLVTVSS
VL: DIVMTQTPLSLSVTPGQPASISCRSSQSLIYSDGNAYLHWYLQKPGQSPQLLIYKVSNRRSGVPDRFSGSGSGTDFTLKISRVEAEDVGVYYCSQSTHSPWTFGGGTKVEIK
B9: 6C3 Fab (Fab, V domains shown)
VH: EVQLVESGGGLVKPGGSLRLSCAASGFTFSRYSMSWVRQAPGKGLEWVGQINSRGNSTYYPDTVKGRFTISRDDSKNTLYLQMNSLKTEDTAVYYCTTGDFWGQGTLVTVSS
VL: DIVMTQTPLSLSVTPGQPASISCRSSQSLIYSDGNAYLHWYLQKPGQSPQLLIYKVSNRFSGVPDRFSGSGSGTDFTLKISRVEAEDVGVYYCTQSTHSPWTFGGGTKVEIK
B10: 5C8 Fab (Fab, V domains shown)
VH: EVQLVESGGGLVKPGGSLRLSCAASGFTFSRYSMSWVRQAPGKGLEWVGQINSRGNSTYYPDTVKGRFTISRDDSKNTLYLQMNSLKTEDTAVYYCTTGDFWGQGTLVTVSS
VL: DIVMTQTPLSLSVTPGQPASISCRSSQSLIYSDGNAYLHWYLQKPGQSPQLLIYKVSNRFWGVPDRFSGSGSGTDFTLKISRVEAEDVGVYYCSQSTHSPWTFGGGTKVEIK
B11: A3 Fab (Fab, V domains shown)
VH: EVQLVESGGGLVKPGGSLRLSCAASGFTFSRYSMSWVRQAPGKGLEWVGQINSSGNSTYYPDTVKGRFTISRDDSKNTLYLQMNSLKTEDTAVYYCTTGDFWGQGTLVTVSS
VL: DIVMTQTPLSLSVTPGQPASISCRSSQSLIYSDGNAYLHWYLQKPGQSPQLLIYKVSNRFSGVPDRFSGSGSGTDFTLKISRVEAEDVGVYYCSQSTHTPWTFGGGTKVEIK
B12: 3D5 Fab (Fab, V domains shown)
VH: EVQLVESGGGLVKPGGSLRLSCAASGFTFSRYSMSWVRQAPGKGLEWVGQINSTGNSTYYPDTVKGRFTISRDDSKNTLYLQMNSLKTEDTAVYYCTTGDFWGQGTLVTVSS
VL: DIVMTQTPLSLSVTPGQPASISCRSSQSLIYSDGNAYLHWYLQKPGQSPQLLIYKVSNRFSGVPDRFSGSGSGTDFTLKISRVEAEDVGVYYCSQSTHSPWTFGGGTKVEIK
B13: 3E2 Fab (Fab, V domains shown)
VH: EVQLVESGGGLVKPGGSLRLSCAASGFTFSRYSMSWVRQAPGKGLEWVGQINSRGNSTYYPDTVKGRFTISRDDSKNTLYLQMNSLKTEDTAVYYCTTGDFWGQGTLVTVSS
VL: DIVMTQTPLSLSVTPGQPASISCRSSQSLIYSDGNNYLHWYLQKPGQSPQLLIYKVSNRFSGVPDRFSGSGSGTDFTLKISRVEAEDVGVYYCSQSTHSPWTFGGGTKVEIK
B14: 3E10 Fab (Fab, V domains shown)
VH: EVQLVESGGGLVKPGGSLRLSCAASGFTFSRYSMSWVRQAPGKGLEWVGQINSRGNSTYYPDTVKGRFTISRDDSKNTLYLQMNSLKTEDTAVYYCTTGDFWGQGTLVTVSS
VL: DIVMTQTPLSLSVTPGQPASISCRSSQSLIYSDGNHYLHWYLQKPGQSPQLLIYKVSNRFSGVPDRFSGSGSGTDFTLKISRVEAEDVGVYYCSQSTHSPWTFGGGTKVEIK
B15: 5B10 Fab (Fab, V domains shown)
VH: EVQLVESGGGLVKPGGSLRLSCAASGFTFSRYSMSWVRQAPGKGLEWVGQINSRGNSTYYPDTVKGRFTISRDDSKNTLYLQMNSLKTEDTAVYYCTTGDFWGQGTLVTVSS
VL: DIVMTQTPLSLSVTPGQPASISCRSSQSLIYSDGNAYLHWYLQKPGQSPQLLIYRVSNRFSGVPDRFSGSGSGTDFTLKISRVEAEDVGVYYCSQSTHSPWTFGGGTKVEIK
B16: 1A12 Fab (Fab, V domains shown)
VH: EVQLVESGGGLVKPGGSLRLSCAASGFTFSRYSMSWVRQAPGKGLEWVGQINIRGNNTYYPDTVKGRFTISRDDSKNTLYLQMNSLKTEDTAVYYCTTGDFWGQGTLVTVSS
VL: DIVMTQTPLSLSVTPGQPASISCRSSQSLIYSDGNAYLHWYLQKPGQSPQLLIYKVSNRFSGVPDRFSGSGSGTDFTLKISRVEAEDVGVYYCSQSTHSPWTFGGGTKVEIK
B17: 6D7 Fab (Fab, V domains shown)
VH: EVQLVESGGGLVKPGGSLRLSCAASGFTFSRYSMSWVRQAPGKGLEWVGQINSRGNSTYYPDTVKGRFTISRDDSKNTLYLQMNSLKTEDTAVYYCTTGDFWGQGTLVTVSS
VL: DIVMTQTPLSLSVTPGQPASISCRSSQSLIYLDGNAYLHWYLQKPGQSPQLLIYKVSNRFSGVPDRFSGSGSGTDFTLKISRVEAEDVGVYYCSQSTHSPWTFGGGTKVEIK

Amino acid sequences for entries named in this document (tags omitted). Residues count along the entry.
UniProt P05067, residues 672-711: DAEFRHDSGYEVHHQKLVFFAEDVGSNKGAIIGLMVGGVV

No constants are given. Whether binding was seen depends on the method and setting. Some entries that bind do so weakly or less than the wild type.

This assay addresses amyloid beta peptide (Aβ), form not stated (UniProt P05067). Briefly: screening: capture filter lift assay and capture ELISA.
For B1, the binding result is reported as “binds”.
As for B2, the entry is “binds”; as for B3, “binds”.
As for B4, the entry is “binds”; as for B5, “binds”.
As for B6, the entry is “binds”; as for B7, “binds”.
Consider B8, for which the binding result was “binds”.
The same measure for B9: “binds”.
As for B10, the entry is “binds”; as for B11, “binds”; as for B12, “binds”.
For B13, the binding result is given as “binds”.
The same measure for B14: “binds”.
As for B15, the entry is “binds”; as for B16, “binds”.
The same measure for B17: “binds”.

For the origin of these results see patent US20060110388A1.
